Measurements reported in paper doi:10.1101/2024.11.19.624261.
Results are given in words; binding and its absence hold for the method and conditions named. In cells and extracts the contact can be indirect. Here binding means that the protein was enriched with, or labelled near, the bait; the list need not be complete. Tags and fused reporters may be left off the sequences shown.

Amino acid sequences for entries named in this document (tags omitted).
UniProt Q3URK3: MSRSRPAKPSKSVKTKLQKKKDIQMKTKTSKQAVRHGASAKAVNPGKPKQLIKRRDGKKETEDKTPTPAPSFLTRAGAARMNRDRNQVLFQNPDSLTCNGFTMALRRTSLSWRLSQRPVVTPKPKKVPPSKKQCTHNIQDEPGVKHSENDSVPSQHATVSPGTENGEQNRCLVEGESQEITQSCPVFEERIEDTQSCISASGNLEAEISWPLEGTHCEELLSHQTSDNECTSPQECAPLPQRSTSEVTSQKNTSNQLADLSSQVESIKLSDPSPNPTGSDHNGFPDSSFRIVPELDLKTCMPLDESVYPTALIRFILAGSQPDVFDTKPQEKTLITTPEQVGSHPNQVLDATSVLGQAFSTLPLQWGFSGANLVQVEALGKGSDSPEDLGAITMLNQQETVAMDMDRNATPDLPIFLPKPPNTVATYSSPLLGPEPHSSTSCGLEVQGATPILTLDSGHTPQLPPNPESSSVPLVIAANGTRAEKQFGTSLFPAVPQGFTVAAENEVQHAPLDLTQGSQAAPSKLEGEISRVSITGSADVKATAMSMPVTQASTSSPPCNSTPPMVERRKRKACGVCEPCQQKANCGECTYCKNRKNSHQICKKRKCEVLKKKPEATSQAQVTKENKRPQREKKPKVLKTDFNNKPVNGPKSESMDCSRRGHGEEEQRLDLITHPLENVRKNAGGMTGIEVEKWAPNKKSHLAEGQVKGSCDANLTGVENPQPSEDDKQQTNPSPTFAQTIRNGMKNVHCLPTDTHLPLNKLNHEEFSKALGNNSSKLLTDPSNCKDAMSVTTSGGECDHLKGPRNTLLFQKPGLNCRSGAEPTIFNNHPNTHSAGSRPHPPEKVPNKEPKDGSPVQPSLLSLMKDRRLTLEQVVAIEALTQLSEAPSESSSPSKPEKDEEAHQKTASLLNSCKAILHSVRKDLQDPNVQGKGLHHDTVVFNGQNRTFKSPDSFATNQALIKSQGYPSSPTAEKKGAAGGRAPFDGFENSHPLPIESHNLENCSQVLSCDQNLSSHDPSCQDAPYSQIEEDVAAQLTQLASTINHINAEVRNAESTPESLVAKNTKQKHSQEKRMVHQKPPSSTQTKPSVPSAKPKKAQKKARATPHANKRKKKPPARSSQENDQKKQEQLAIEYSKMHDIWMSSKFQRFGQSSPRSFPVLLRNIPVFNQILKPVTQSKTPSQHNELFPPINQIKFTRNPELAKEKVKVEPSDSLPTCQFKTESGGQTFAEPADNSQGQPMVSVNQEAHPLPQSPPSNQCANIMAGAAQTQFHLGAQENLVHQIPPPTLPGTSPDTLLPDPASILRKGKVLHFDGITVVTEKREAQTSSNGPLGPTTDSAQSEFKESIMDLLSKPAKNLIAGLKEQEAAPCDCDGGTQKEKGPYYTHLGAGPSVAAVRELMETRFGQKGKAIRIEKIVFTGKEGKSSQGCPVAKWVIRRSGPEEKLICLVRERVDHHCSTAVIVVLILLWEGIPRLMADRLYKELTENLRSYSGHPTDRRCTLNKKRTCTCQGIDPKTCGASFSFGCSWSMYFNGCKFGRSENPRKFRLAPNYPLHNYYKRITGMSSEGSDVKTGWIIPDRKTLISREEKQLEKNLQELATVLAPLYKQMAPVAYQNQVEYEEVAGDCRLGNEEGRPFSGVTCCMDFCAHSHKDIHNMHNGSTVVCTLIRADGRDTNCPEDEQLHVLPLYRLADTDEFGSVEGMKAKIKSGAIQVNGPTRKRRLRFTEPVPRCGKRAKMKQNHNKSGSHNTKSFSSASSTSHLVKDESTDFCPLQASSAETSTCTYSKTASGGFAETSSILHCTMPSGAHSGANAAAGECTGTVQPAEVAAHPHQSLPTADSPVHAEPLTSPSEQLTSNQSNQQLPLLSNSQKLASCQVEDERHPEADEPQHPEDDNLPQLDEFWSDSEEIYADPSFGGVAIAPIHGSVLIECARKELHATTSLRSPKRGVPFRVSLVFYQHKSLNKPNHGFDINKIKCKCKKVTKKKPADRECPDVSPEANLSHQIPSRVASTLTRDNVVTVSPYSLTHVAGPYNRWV
UniProt Q921E6: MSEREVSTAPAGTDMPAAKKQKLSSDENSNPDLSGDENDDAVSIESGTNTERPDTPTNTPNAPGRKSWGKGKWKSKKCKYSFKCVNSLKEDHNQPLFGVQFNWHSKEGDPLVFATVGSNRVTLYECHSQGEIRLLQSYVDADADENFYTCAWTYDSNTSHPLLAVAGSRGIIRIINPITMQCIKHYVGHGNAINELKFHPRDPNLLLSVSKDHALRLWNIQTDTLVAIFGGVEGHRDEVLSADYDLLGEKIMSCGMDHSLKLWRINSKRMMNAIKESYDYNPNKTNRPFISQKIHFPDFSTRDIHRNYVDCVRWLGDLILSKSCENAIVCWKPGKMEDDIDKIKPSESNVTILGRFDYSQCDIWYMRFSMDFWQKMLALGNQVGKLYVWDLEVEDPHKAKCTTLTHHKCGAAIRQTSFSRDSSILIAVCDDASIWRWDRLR

T1: FLAG-tagged form of LIN28A (UniProt Q8K3Y3)
T1 sequence: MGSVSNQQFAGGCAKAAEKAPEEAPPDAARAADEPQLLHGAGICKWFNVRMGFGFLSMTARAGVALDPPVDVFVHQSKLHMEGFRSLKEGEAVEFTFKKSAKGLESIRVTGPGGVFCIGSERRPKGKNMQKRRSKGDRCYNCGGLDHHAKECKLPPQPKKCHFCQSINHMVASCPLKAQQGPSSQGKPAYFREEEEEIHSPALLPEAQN

B1: AEBP2 (adipocyte enhancer-binding protein 2) (protein, UniProt Q9Z248 1-504)
chain: MAAALADMADLEELSRLSPLSPGSPGPAARGRAEPPEEEEEEDDEEAEAEAVAALLLNGGAGGGAGGGEAETMSEPSPESASQAGGDEDEDEEDDEDEGSSSGGAEEESSAESLVGSSSGGCSGDETRSLSPGAASSSSGDGDGKEGLEEPKGPRGGPGGPGSSGGGSSSSSVVSSGGDEGYGTGGGGSSATSGGRRGSLEMSSDGEPLSRMDSEDSISSTLMDIDSTISSGRSTPAMMNGQGSTTASSKHIAYNCCWDQCQACFNSSPDLADHIRSIHVDGQRGGVFVCLWKGCKVYNTPSTSQSWLQRHMLTHSGDKPFKCVVGGCNASFASQGGLARHVPTHFSQQNSSKVSSQPKAKEESPSKAGMNKRRKLKNKRRRSLPRPHDFFDAQTLDAIRHRAICFNLSAHIESLGKGHSVVFHSTVIAKRKEESGKIKLLLHWMPEDILPDVWVNESERHQLKTKVVHLSKLPKDTALLLDPNIYRTMPQKRLKRFDILNFPR

Biological target: T1, FLAG-tagged form of LIN28A
Assay: affinity purification with mass spectrometry

binding, binds:
5-methylcytosine ten-eleven translocation dioxygenase (TET1) (from UniProt Q3URK3 1-2039), EED (embryonic ectoderm development) (from UniProt Q921E6 1-441), B1
